# Measurements as given in publication PMC10570812.
# Results are given in words; binding and its absence hold for the method and conditions named. Binding calls can cover weak binding; strength is not graded here.
# Legend:
# [1] = target: T1, ZK002 β chain (Deinagkistrodon acutus) (UniProt Q8JIV8); experiment: crystal structure; both purified
# T1 sequence: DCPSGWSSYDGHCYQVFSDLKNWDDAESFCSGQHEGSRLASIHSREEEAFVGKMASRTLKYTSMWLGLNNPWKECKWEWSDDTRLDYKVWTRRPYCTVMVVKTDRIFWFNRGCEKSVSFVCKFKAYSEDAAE
# [2] = target: T1, ZK002 β chain (Deinagkistrodon acutus); experiment: SDS-PAGE under reducing and non-reducing conditions + MALDI-TOF MS; purified ZK002; about 30 kDa non-reduced, about 15 kDa reduced; MALDI-TOF peaks at 30 kDa, 15 kDa (α) and 16 kDa (β); both purified
substance,measurement,setting,value
ZK002 α chain (Deinagkistrodon acutus),binding,[1],binds
same,binding,[2],binds
